The subject of this data set is pregnant rats. The data set is described as follows: Antenatal treatment of pregnant rats: weight of maternal and fetal lungs. Format: in vivo, rat. Particulars: antenatal treatment 48 h. The procedure: Leptin (1 mg/kg body weight) was administered to pregnant rats at d16 of gestation and 24 h later by intraperitoneal injection. Dexamethasone at 6 mg per kg body weight was administered at similar time intervals as leptin. In addition, the effect of a combination of leptin and dexamethasone treatment was tested. After 48 h of leptin, dexamethasone or leptin/dexamethasone exposure, premature delivery of the rat pups was induced at d18, which is similar to 30 weeks of gestation in the human. The fetuses from each litter were pooled and weighed, and various tissues from both the rat fetuses and mothers were also dissected and weighed. […] Antenatal treatment with dexamethasone increased fetal lung weight by 41%.

With leptin, under “delivery at d18, n = 9”, the “Average weight fetal head” value is recorded as 0.45 (n = 9) g and the Average weight fetus was 1.56 (n = 9) g. The Maternal lung weight (leptin 1 mg/kg, dexamethasone 6 mg/kg i.p.) was found to be 1.21 g.

For the origin of these results see US6884777B1, “Method for treating respiratory distress syndrome” (The Nemours Foundation, priority 2000, dated 2005).
